The values below come from article PMC5508205.

The chains behind the UniProt entries cited, without tags or fusion partners. Residues count along the entry.
UniProt P35222: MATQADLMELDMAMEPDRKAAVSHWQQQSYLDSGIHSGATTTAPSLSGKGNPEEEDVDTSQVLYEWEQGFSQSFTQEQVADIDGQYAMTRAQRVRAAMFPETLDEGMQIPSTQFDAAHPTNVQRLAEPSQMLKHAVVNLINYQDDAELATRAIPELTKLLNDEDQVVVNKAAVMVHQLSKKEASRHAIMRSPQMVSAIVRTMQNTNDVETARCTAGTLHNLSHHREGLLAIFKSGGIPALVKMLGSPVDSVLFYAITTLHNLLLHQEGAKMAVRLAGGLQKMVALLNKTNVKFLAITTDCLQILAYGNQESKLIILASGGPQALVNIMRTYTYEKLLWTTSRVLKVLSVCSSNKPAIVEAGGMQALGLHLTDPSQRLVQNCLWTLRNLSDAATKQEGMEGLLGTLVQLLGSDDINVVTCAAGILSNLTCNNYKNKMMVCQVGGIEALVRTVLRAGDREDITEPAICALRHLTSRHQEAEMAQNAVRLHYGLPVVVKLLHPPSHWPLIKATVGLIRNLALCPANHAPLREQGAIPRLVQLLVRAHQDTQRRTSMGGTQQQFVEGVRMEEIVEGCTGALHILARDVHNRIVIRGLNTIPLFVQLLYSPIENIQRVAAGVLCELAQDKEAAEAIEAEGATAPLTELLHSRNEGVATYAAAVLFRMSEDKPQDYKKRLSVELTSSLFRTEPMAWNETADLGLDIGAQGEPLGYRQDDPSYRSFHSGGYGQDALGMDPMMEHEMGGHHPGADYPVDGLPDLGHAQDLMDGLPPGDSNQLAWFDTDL
UniProt P46531, residues 1754-2555: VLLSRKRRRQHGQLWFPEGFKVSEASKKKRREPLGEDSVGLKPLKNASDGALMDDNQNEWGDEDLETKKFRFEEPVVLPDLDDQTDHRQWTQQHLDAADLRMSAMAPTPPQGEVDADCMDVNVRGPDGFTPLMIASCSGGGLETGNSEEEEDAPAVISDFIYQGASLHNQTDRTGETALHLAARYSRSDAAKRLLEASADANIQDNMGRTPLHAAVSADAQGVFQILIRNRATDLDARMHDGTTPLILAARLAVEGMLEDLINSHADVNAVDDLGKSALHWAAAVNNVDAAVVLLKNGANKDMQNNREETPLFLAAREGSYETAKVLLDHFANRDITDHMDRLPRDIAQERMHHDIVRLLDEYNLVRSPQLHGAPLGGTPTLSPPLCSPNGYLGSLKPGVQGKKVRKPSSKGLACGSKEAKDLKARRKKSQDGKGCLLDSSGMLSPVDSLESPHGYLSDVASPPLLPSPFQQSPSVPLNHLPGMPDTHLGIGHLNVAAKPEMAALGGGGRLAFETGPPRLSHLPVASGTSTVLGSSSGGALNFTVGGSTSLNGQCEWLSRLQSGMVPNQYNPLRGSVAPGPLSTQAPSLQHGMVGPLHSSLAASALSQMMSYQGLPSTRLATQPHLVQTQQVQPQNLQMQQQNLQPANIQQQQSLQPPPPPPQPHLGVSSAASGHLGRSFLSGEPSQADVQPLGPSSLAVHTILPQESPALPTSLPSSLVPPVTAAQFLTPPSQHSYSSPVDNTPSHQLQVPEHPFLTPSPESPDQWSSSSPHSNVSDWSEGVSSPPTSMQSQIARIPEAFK

Assay [1] concerns the target T1, ERG (ETS-related gene) (human (endogenous in HUVEC)) (UniProt P11308).
T1 sequence: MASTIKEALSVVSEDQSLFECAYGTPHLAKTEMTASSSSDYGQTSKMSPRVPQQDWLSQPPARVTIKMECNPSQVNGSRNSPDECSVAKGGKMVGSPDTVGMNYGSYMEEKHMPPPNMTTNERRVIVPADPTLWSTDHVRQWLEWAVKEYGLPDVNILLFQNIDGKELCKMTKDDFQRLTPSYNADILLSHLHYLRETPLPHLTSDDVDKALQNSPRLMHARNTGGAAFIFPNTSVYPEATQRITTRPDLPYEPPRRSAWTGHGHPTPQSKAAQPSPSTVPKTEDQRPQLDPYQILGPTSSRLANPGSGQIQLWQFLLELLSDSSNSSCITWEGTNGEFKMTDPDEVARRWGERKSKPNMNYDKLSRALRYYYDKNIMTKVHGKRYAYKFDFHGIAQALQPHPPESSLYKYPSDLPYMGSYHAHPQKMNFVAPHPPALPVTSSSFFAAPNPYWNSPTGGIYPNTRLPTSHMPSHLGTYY
In words: proximity ligation; Duolink in situ PLA on fixed, permeabilised confluent HUVEC with rabbit anti-ERG and mouse anti-β-catenin; unstimulated, or Ang1 (250 ng/ml, 30 min), with or without pre-treatment with LY294002 (20 μM) or Akt inhibitor IV (8 μM).

Assay [2] has as its target T1, ERG (ETS-related gene) (human (endogenous in HUVEC)). In words: co-IP; anti-ERG rabbit polyclonal antibody (H-95) on protein A sepharose beads with pre-cleared confluent HUVEC lysate (20 mM Tris-HCl pH 7.5, 150 mM NaCl, 0.5% Triton X-100), 4 °C; blots with anti-ERG, anti-β-catenin and anti-NICD; control rabbit IgG.

Results are given in words; binding and its absence hold for the method and conditions named. In cells and extracts the contact can be indirect. Some binding calls cover weakened binding; strength is not graded here.

For the substance β-catenin (from UniProt P35222 1-781), the binding entry in assay [1] and in assay [2] was “binds” in each case.
As for “Notch intracellular domain (NICD) (from UniProt P46531 1754-2555) (domain or fragment)”, the binding result in assay [2] was “binds”.
